# Measured values taken from PMC4667280, “Crystal structure of FadD32, an enzyme essential for mycolic acid biosynthesis in mycobacteria” (Scientific Reports, 2015).
# B1: full-length Mycobacterium smegmatis FadD32 (fatty acid degradation protein D32) (enzyme, UniProt A0R618 1-630)
# chain: MPFHNPFIKDGQIKFPDGSSIVAHVERWAKVRGDKLAYRFLDFSTERDGVPRDLTWAQFSARNRAVAARLQQVTQPGDRVAILCPQNLDYLVAFFGALYAGRIAVPLFDPSEPGHVGRLHAVLDNCHPSAILTTTEAAEGVRKFFRTRPANQRPRVIAVDAVPDDVASTWVNPDEPDETTIAYLQYTSGSTRIPTGVQITHLNLATNVVQVIEALEGEEGDRGLSWLPFFHDMGLITALLAPMIGHYFTFMTPAAFVRRPERWIRELARKEGDTGGTISVAPNFAFDHAAARGVPKPGSPPLDLSNVKAVLNGSEPISAATVRRFNEAFGPFGFPPKAIKPSYGLAEATLFVSTTPSAEEPKIITVDRDQLNSGRIVEVDADSPKAVAQASAGKVGIAEWAVIVDAESATELPDGQVGEIWISGQNMGTGYWGKPEESVATFQNILKSRTNPSHAEGATDDATWVRTGDYGAFYDGDLYITGRVKDLVIIDGRNHYPQDLEYSAQEASKAIRTGYVAAFSVPANQLPDEVFENAHSGIKRDPDDTSEQLVIVAERAPGAHKLDIGPITDDIRAAIAVRHGVTVRDVLLTAAGAIPRTSSGKIGRRACRAAYLDGSLRAGKVANDFPDATD
# Molecular target: M. smegmatis PKS13 residues 1-1042 (MsPKS13ΔC) (M. smegmatis)
# Experiment: SEC; Superdex 200, 20 mM Tris pH 8.0, 150 mM NaCl, 0.4 ml/min; MsFadD32 pre-incubated with MsPKS13ΔC, and each protein alone, injected; peak fractions analysed by SDS-PAGE; both purified
binder,measurement,value
B1,binding,binds

# These are yes or no findings as the source states them, for the method shown. A result given as binding can be weak or reduced; the word gives no strength. Where a sequence is shown, tags or fusion partners need not be part of it.
